Data as given in PubChem BioAssay AID743121 (NCATS, 2013)

Aim: 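Knock-downs that sensitise breast cancer cells to camptothecin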 (primary screen)
Cell system: MDA-MB-231 cells, a human breast cancer line
Reagent: single siRNA against human genes, 20 nM siRNA (0.8 pmol per well)
Timing: 120 h (drug added 48 h after transfection, read 72 h later)
Conditions: camptothecin 20 nM (about EC30) for 72 h; vehicle 0.1% DMSO in parallel plates
Measurement: 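CellTiter-Glo ATP signal, scaled to control siRNA as percent viability; sensitisation given as log2 of untreated divided by camptothecin-treated viability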
Reading the numbers: log2 vehicle/camptothecin viability: higher = stronger sensitisation to camptothecin; viability with camptothecin: higher = more viable cells
Units: viability with camptothecin in % of control
Call rule: 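Each gene scored by redundant siRNA activity (RSA) over its individual siRNA ratios; a gene is called active at p < 0.001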
The whole screen tested about 26,000 reagents; below is an unselected part. 167 of them (0.63%) count as active. 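Calls are per gene from RSA p-values that are not deposited; an individual active-marked siRNA can sensitise only weakly.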 Reagents against one gene are numbered here. Further read-outs or replicates are left out here.

ZNF606 (zinc finger protein 606) #1
- log2 vehicle/camptothecin viability: -0.312
- viability with camptothecin: 81.5
- Outcome: inactive

ZNF606 (zinc finger protein 606) #2
- log2 vehicle/camptothecin viability: -0.0366
- viability with camptothecin: 81.1
- Outcome: inactive

ZNF606 (zinc finger protein 606) #3
- log2 vehicle/camptothecin viability: 0.211
- viability with camptothecin: 87.5
- Outcome: inactive

ZNF606 (zinc finger protein 606) #4
- log2 vehicle/camptothecin viability: -0.0208
- viability with camptothecin: 29.1
- Outcome: inactive

FGF5 (fibroblast growth factor 5) #1
- log2 vehicle/camptothecin viability: -0.537
- viability with camptothecin: 39.4
- Outcome: inactive

FGF5 (fibroblast growth factor 5) #2
- log2 vehicle/camptothecin viability: -0.314
- viability with camptothecin: 70.1
- Outcome: inactive

FGF5 (fibroblast growth factor 5) #3
- log2 vehicle/camptothecin viability: -0.097
- viability with camptothecin: 105
- Outcome: inactive

FGF5 (fibroblast growth factor 5) #4
- log2 vehicle/camptothecin viability: -0.13
- viability with camptothecin: 115
- Outcome: inactive

CD4 (CD4 molecule) #1
- log2 vehicle/camptothecin viability: 0.348
- viability with camptothecin: 26.5
- Outcome: inactive

CD4 (CD4 molecule) #2
- log2 vehicle/camptothecin viability: -0.459
- viability with camptothecin: 80.7
- Outcome: inactive

CD4 (CD4 molecule) #3
- log2 vehicle/camptothecin viability: -0.124
- viability with camptothecin: 100
- Outcome: inactive

CD4 (CD4 molecule) #4
- log2 vehicle/camptothecin viability: 0.0121
- viability with camptothecin: 98.8
- Outcome: inactive

Continued; the last 3 above are carried over.
CD4 (CD4 molecule) #2
- log2 vehicle/camptothecin viability: -0.459
- viability with camptothecin: 80.7
- Outcome: inactive

CD4 (CD4 molecule) #3
- log2 vehicle/camptothecin viability: -0.124
- viability with camptothecin: 100
- Outcome: inactive

CD4 (CD4 molecule) #4
- log2 vehicle/camptothecin viability: 0.0121
- viability with camptothecin: 98.8
- Outcome: inactive

CARD8 (caspase recruitment domain family member 8) #1
- log2 vehicle/camptothecin viability: -0.14
- viability with camptothecin: 41.8
- Outcome: inactive

CARD8 (caspase recruitment domain family member 8) #2
- log2 vehicle/camptothecin viability: -0.412
- viability with camptothecin: 85.1
- Outcome: inactive

CARD8 (caspase recruitment domain family member 8) #3
- log2 vehicle/camptothecin viability: -0.0823
- viability with camptothecin: 92
- Outcome: inactive

MUL1 (mitochondrial E3 ubiquitin protein ligase 1) #1
- log2 vehicle/camptothecin viability: -0.0361
- viability with camptothecin: 74.2
- Outcome: inactive

MUL1 (mitochondrial E3 ubiquitin protein ligase 1) #2
- log2 vehicle/camptothecin viability: -0.102
- viability with camptothecin: 106
- Outcome: inactive

MUL1 (mitochondrial E3 ubiquitin protein ligase 1) #3
- log2 vehicle/camptothecin viability: 0.0699
- viability with camptothecin: 89.1
- Outcome: inactive

TUBGCP2 (tubulin gamma complex component 2) #1
- log2 vehicle/camptothecin viability: -5.98
- viability with camptothecin: 100
- Outcome: inactive

TUBGCP2 (tubulin gamma complex component 2) #2
- log2 vehicle/camptothecin viability: 0.322
- viability with camptothecin: 61.3
- Outcome: inactive

TUBGCP2 (tubulin gamma complex component 2) #3
- log2 vehicle/camptothecin viability: 0.119
- viability with camptothecin: 75.9
- Outcome: inactive

TUBGCP2 (tubulin gamma complex component 2) #4
- log2 vehicle/camptothecin viability: -0.14
- viability with camptothecin: 104
- Outcome: inactive

LAMB1 (laminin subunit beta 1) #1
- log2 vehicle/camptothecin viability: -0.303
- viability with camptothecin: 57.8
- Outcome: inactive

LAMB1 (laminin subunit beta 1) #2
- log2 vehicle/camptothecin viability: -0.051
- viability with camptothecin: 14.6
- Outcome: inactive

LAMB1 (laminin subunit beta 1) #3
- log2 vehicle/camptothecin viability: -0.322
- viability with camptothecin: 77.8
- Outcome: inactive
